Measurements reported in PubChem BioAssay AID1794844 (National Center for Advancing Translational Sciences (NCATS), 2023).
Hit rate of the full screen: of about 2,800 compounds, fewer than 10 were called active. Not shown: some 7% with an inconclusive outcome. Calls follow the shape of the dose curve; as a rule, active = well fitted inhibition curve with a large enough effect; inconclusive = small, poorly fitted or top-dose-only effect; inactive = no such curve, though single readings can be large or run the other way. This is one part of the list.

By UniProt entry, the sequences of proteins in these tests, tags left out. Where a name states a change or a piece, a line headed by the entry shows the natural chain unless it says otherwise.
UniProt C7C422: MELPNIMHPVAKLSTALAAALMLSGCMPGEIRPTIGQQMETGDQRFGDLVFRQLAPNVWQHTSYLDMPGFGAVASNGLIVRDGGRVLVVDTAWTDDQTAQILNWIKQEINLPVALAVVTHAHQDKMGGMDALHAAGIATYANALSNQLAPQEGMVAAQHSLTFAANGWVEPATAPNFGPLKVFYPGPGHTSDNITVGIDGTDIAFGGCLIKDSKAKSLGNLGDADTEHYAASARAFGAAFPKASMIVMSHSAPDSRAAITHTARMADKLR

molecular target: Metallo-beta-lactamase type 2 (Klebsiella pneumoniae) (UniProt C7C422); assay: qHTS to identify inhibitors of the New Delhi Metallo-beta-lactamase (NDM): Nitrocefin screen against the machine-based learning selections.; as to activity, negative = inhibition: % of control where 0% means no effect; settings: NDM-1 enzyme, nitrocefin hydrolysis, absorbance 485 nm; activity, negative = inhibition: at the top concentration
Procedure, shortened: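 NDM-1 (2 nM final) in 50 mM HEPES pH 7.0, 1 uM Zn2SO4, 0.01% Tween20 was preincubated with compounds for >30 min. Nitrocefin (16.7 uM final) was read at 485 nm after 15 min, and meropenem (50 uM final) at 300 nm after 30 min.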
Potency is read from the fitted curve at half-maximal effect.

activity, negative = inhibition, inactive:
CNC(=O)N1CCC(C2CCN(Cc3ccc(Br)o3)C2)CC1 (stereo not given) -4.75%
Cc1noc([C@@H]2CNC[C@H]2CO)n1 0.709%
CC(=O)N[C@@H]1Cc2ccccc2[C@H]1n1ccnc1-c1cc2n(n1)CCNC2 -4.6%
O=C(NCc1ccc(F)cc1)c1cnc2n[nH]c(-c3ccccc3)c2n1 -3.23% [at 57.5 µM]
Cc1ccc(S(=O)(=O)N[C@H]2CO[C@H]3[C@@H]2OC[C@@H]3Nc2nccc(C(C)(C)C)n2)cc1 0.29% [at 57.5 µM]
Cc1ccccc1Oc1ncccc1CNCc1cccc(O)c1 0.866%
CCCc1nnc([C@H]2CCN(Cc3ccc(C)o3)C2)o1 22.7% [at 76.7 µM]
CC(C)NC(=O)N[C@H]1C[C@@H](Cc2cc(-c3ccccc3)on2)C1(C)C 2.2% [at 57.5 µM]
O=C(c1ccc(OC(F)F)cc1)N1CCCC(O)(CN2CCCC2)C1 (stereo not given) -3.33%
Cc1nnc([C@@H]2CC(F)(F)CN2C(=O)c2ccc3ncccc3c2)o1 -3.64%
C=CCN(C)C(=O)[C@@H](C)C1CC[C@@]2(C)Cc3sc(CSc4ccccc4)nc3[C@@H](C)[C@@H]2[C@H]1O (stereo not given in full) -5.99%
Cc1ccc(OC2(C(=O)N[C@H]3CCc4ccccc43)CCNCC2)cc1 1.14%
NC(=O)c1cccc(-c2ccc3c(n2)CN(Cc2nc4ccccc4s2)C(=O)CO3)c1 3.32% [at 57.5 µM]
CC1(COc2ccccc2)COc2ccc(C(=O)NCCc3cnc[nH]3)cc2N1 (stereo not given) -6.78% [at 57.5 µM]
COc1ccc(CN2C[C@@H](CO)[C@H](C3CCN(C(C)=O)CC3)C2)cc1C -4.27%
N#Cc1cccc(CN2Cc3[nH]cnc3C[C@H]2c2nc(-c3ccc(OC(F)(F)F)cc3)no2)c1 -9.01%
CCNC(=O)Cc1c[nH]c2ncc(-c3ccccc3C)cc12 -6.6% [at 57.5 µM]
Cc1nc(CC(=O)N2CC[C@@H](NC(=O)c3cnccn3)[C@H](O)C2)cs1 -6.1%
COc1ccc(C(=O)N2CCC(=O)N(Cc3ccc(F)cc3)C(C(C)C)C2)o1 (stereo not given) -2.36%
COc1cc(NC(=O)Cn2nc3c(cc2=O)CCCCC3)cc(OC)c1OC -5.13%
Cc1cccc(O[C@H]2COCCN(Cc3ccccn3)C2)n1 -0.933% [at 57.5 µM]
O[C@H]1CC[C@@H](Cc2cc(COc3ccccc3)on2)O[C@@H]1CNC1CCOCC1 5.65% [at 57.5 µM]
CC(C)(O)c1cc(CC2(NCc3cnc4ccccc4c3)COC2)no1 0.81% [at 57.5 µM]
CC1(C(=O)Nc2ccccc2)COCc2cnc(Nc3ccccc3)nc21 (stereo not given) 4.32% [at 57.5 µM]
CC(C)Oc1ccc2c(NC(=O)c3ncc(F)cc3F)nn(CC(F)(F)F)c2c1 10.8%
CN1C[C@@H](NC(=O)c2ccc(C(C)(C)C)cc2)C[C@H]1c1nc(-c2ccncc2)no1 1.53% [at 57.5 µM]
C[C@]1(CO)[C@H]2Cc3sc(NC(=O)C4CCCCC4)nc3[C@@H](CC(=O)N3CCOCC3)[C@]2(C)CC[C@H]1O -1.71%
COCCNc1ncccc1-c1noc([C@@H]2CCCN2CC(C)(C)C)n1 2.4% [at 57.5 µM]
O=C(O)c1ccc(C2CCCN(C(=O)c3cccc4cccnc34)C2)cc1 (stereo not given) -0.824%
c1ccc(Nc2cc3c(cn2)CN(Cc2ccsc2)CCN3)cc1 2.07% [at 57.5 µM]
O=C(Cc1ccccc1C(F)(F)F)N1CCC2(CC1)[C@H](O)C[C@@H]2O -5.52%
c1ccc(-c2cc3c(cn2)CN(Cc2c[nH]c4ccccc24)CCN3)cc1 -0.4% [at 57.5 µM]
C[C@@H](NS(=O)(=O)c1ccc(Cl)cc1)c1onc(-c2cccnc2)c1C(=O)O 9.86% [at 57.5 µM]
CSCC(=O)N1CC[C@H](NC(=O)Nc2cccc(SC)c2)[C@H]1C(=O)N[C@@H](Cc1cccs1)C(N)=O -0.281%
CCc1nc2c(c(-c3ccc(O)cc3)n1)CN(Cc1ccccc1OC)CC2 5.69%
O=C(O)Cn1ccc2cc(OCCc3cccc(-c4ccccc4)c3)cnc21 -6.39% [at 57.5 µM]
COc1ccc(C(=O)NC[C@H]2O[C@@H](CC(=O)N3CCN(c4ccccc4OC)CC3)[C@H](O)[C@@H]2O)cc1 1.54%
COc1cc(F)cc(-c2cnc3[nH]cc(CC(=O)NCc4cccnc4)c3c2)c1 -3.73% [at 57.5 µM]
COCC(=O)NC[C@H]1OC[C@@H](NC2CCC2)[C@@H]1O -0.0925% [at 76.7 µM]
CCOC(=O)C[C@@H]1C[C@@H](C(C)C)[C@H](CNC(=O)c2ccc(F)cc2)C=C1C -0.664% [at 57.5 µM]
Cc1cccc2c1nc1n2[C@@H](CNCc2ccccc2)COC1 1.33% [at 57.5 µM]
CC(C)N1C(=O)CO[C@H](c2ccc(NC(=O)c3ccccc3)cc2)[C@H]1CO -4.04% [at 57.5 µM]
COc1ccc(C(=O)N[C@H](C)c2onc(-c3ccc(F)cc3)c2C(=O)O)cc1 -4.49% [at 57.5 µM]
Cc1cc(Cn2cc3c4c(cccc42)[C@H](CC(C)C)N[C@H](C(=O)N2CCN(C)CC2)C3)no1 -2.8%
O=C(Nc1ccccc1)c1cnc2n1CCN(Cc1cccc(O)c1)CC2 -2.02% [at 57.5 µM]
O=C(NC1CCCN(c2cc(-c3ccc(F)cc3)[nH]n2)C1)c1cccc(Cl)c1 (stereo not given) 5.89%
O=C(NCc1nncn1C1CCCCC1)C1NCCc2[nH]cnc21 (stereo not given) -7.48%
NC(=O)c1cccc(-c2cc3c(cn2)CN(CCc2ccccc2)CCN3)c1 -2.25% [at 57.5 µM]
CC1=C[C@@H](CNS(=O)(=O)c2ccc(F)cc2)[C@H](C(C)C)C[C@H]1CC(=O)NCCN(C)C -6.08%
COc1ccc(CN2CCC3(CCC(=O)N(Cc4ccncc4)C3)CC2)c(F)c1 2.84%
CC(=O)N[C@@H]1CCC[C@@H](C(=O)NC2CCOCC2)CC(=O)N(C)C1 -3.93% [at 57.5 µM]
O[C@@H]1CCN(Cc2nc(C3(O)CCN(C4CCCC4)CC3)cs2)C1 5.52% [at 57.5 µM]
COc1ccc(C[C@H](NC(=O)[C@@]2(O)C[C@@H](O)[C@H](O)[C@@H](NC(=O)Nc3ccc(C(C)=O)cc3)C2)C(N)=O)cc1 4.16%
COCc1nnc2n1CCC(NC(=O)COc1ccc(Cl)cc1)CC2 (stereo not given) 9.46%
COc1ccc(CNC(=O)C[C@@H]2C[C@H]3O[C@H](CNC(=O)NC(C)C)[C@@H](O)[C@H]3O2)cc1 -0.199% [at 57.5 µM]
O=C(c1ccncc1)N1CC[C@H](c2nnc(-c3ccncc3)o2)C1 -3.81% [at 57.5 µM]
O=C(NC[C@H]1OC[C@@H](NCc2cccs2)[C@@H]1O)Nc1ccccc1 1.17% [at 57.5 µM]
Cc1cccc(N(C)C(=O)Cn2c(N3CCc4ccccc4C3)nc(C)cc2=O)c1 -2.53%
N#Cc1cccc(NC(=O)c2cccc(CN3CCN(CCO)CC3)c2)c1 -3.36%
O=C(N[C@H](Cc1ccncc1)C1CC(O)C1)c1cccn1C1CC1 (stereo not given in full) -0.812%
O=C(Nc1ccc(-c2nnc3n2CCCC3)cc1)c1ccc2c(c1)OCO2 -3.5%
COc1cccc(CCC(=O)N2CCC3(CC2)N(c2ccccc2)C(=O)CS3(=O)=O)c1 -0.766%
Cn1cc(CN[C@H]2C[C@H]3C(=O)NC[C@@H](CCC(=O)N4CCc5ccccc54)N3C2)c2ccccc21 6.32%
CC(=O)N1CCN(C(=O)C[C@@H]2c3nc(NC(=O)C(C)(C)C)sc3C[C@@H]3[C@](C)(CO)[C@H](O)CC[C@]32C)CC1 -12.4%
O=C(NC1CCC(O)CC1)c1ccc(-c2ncc3cnc(-c4ccccc4)cn23)cc1 (stereo not given) 4.39% [at 76.7 µM]
COc1cc(C)c2c(c1C)C[C@H](C(C)C(=O)NCc1cccs1)CC2 (stereo not given in full) -6.74% [at 57.5 µM]
c1ccc(CCN2CCNc3cc(NCc4cccnc4)ncc3C2)cc1 0.161% [at 57.5 µM]
Cc1ccc(OC2(C(=O)NC(C)c3nn[nH]n3)CCNCC2)cc1 (stereo not given) -7.4%
O=C(N[C@@H]1CCN(Cc2cccc3nonc23)C[C@H]1O)c1cccnc1 -1.15%
COC(=O)[C@H](NC(=O)[C@@H]1C[C@@H](NS(=O)(=O)c2cccc(C(F)(F)F)c2)CCN1C(=O)CCC(=O)O)C(C)C -6.21%
Cn1cc(-c2cnc3[nH]cc(CC(=O)Nc4cccnc4)c3c2)cn1 2.9% [at 57.5 µM]
Cc1ccc(-c2nnc([C@H]3CCN(C(=O)CCC(=O)O)C3)o2)cc1 -4.13% [at 57.5 µM]
C[S+](=O)([O-])c1ccc(-c2cnc3n[nH]c(-c4ccccc4)c3n2)cc1 9.34% [at 57.5 µM]
OCC1CN(Cc2cscn2)CCC12CCN(Cc1ccccc1)CC2 (stereo not given) 0.811%
O=C(O)c1ccc(NCc2nc3c(n2Cc2ccccc2)C(=O)N(Cc2cccc(Cl)c2)CCN3)cc1 10.8%
O=C(CCn1cnnn1)N1CCC2(CC1)Nc1ccccc1NC2=O -1.98%
CSc1ccc(-c2nc(CN(C)Cc3cnccn3)c(C)o2)cc1 -7.39%
COc1ccccc1Oc1ncccc1CNC(=O)Nc1cccc(C#N)c1 -1.57%
OC(c1nc(Nc2cccc(Cl)c2)n[nH]1)C1CC1 (stereo not given) 1.69% [at 76.7 µM]
Cc1cccc(-c2cccc(CCOc3cnc4c(ccn4CC(=O)O)c3)c2)c1 -9.73% [at 57.5 µM]
CC[C@H]1CN(C(C)=O)CC[C@H]1CC(=O)NC(C)C -1.15% [at 76.7 µM]
Oc1cccc(-c2cnc3n[nH]c(-c4ccccc4)c3n2)c1 -19.7% [at 76.7 µM]
COc1ccc2[nH]c3c(c2c1)CCN(C)C31CCN(C(=O)c2ccccn2)CC1 -4.02%
CN1CCC(N2CC3(C2)C(=O)N(C)C(=O)[C@@H]2C[C@@H](O)CN23)CC1 -11.3% [at 57.5 µM]
O=C(O)C1Cc2nc[nH]c2CN1C(=O)c1cccc(-n2cccn2)c1 (stereo not given) -15.3%
N[C@@H](Cc1cnc[nH]1)C(=O)N1CCC2(CC1)Nc1ccccc1NC2=O 14.7%
Clc1ccc(-c2cnc([C@@H]3COCCN3C3CCNCC3)[nH]2)s1 5.84% [at 57.5 µM]
Cn1ccc(NC(=O)C2(C)CCCc3cnc(NCc4ccccc4)nc32)n1 (stereo not given) -0.304% [at 57.5 µM]
Cc1ccc2c(c1)N1C(=O)OC[C@@H]1CCN(Cc1cccc(Cl)c1)C2 0.884% [at 57.5 µM]
CN(Cc1cc2n(n1)CCNC2)Cc1nc2ccsc2c(=O)[nH]1 -9.88%
CSCC(=O)N1C[C@@H](NC(=O)NC2CCCCC2)C[C@H]1C(=O)N[C@H](Cc1c[nH]c2ccccc12)C(N)=O -1.83%
CCOCCN1C(=O)COC[C@@H]1[C@H](O)c1ccc(NC(=O)Cc2ccccc2)cc1 5.26% [at 57.5 µM]
O=C1Nc2ccccc2O[C@H]2C[C@@H]1N(Cc1ccc3ccccc3n1)C2 -5.7% [at 57.5 µM]
COCc1noc(CCNc2cc(C)nc(-c3ccccc3O)n2)n1 -2.07%

Of the compounds above, 6 have a thiophene ring, fused or not.
activity, negative = inhibition, inactive:
c1ccc(Nc2cc3c(cn2)CN(Cc2ccsc2)CCN3)cc1 2.07% [at 57.5 µM]
CSCC(=O)N1CC[C@H](NC(=O)Nc2cccc(SC)c2)[C@H]1C(=O)N[C@@H](Cc1cccs1)C(N)=O -0.281%
O=C(NC[C@H]1OC[C@@H](NCc2cccs2)[C@@H]1O)Nc1ccccc1 1.17% [at 57.5 µM]
COc1cc(C)c2c(c1C)C[C@H](C(C)C(=O)NCc1cccs1)CC2 (stereo not given in full) -6.74% [at 57.5 µM]
Clc1ccc(-c2cnc([C@@H]3COCCN3C3CCNCC3)[nH]2)s1 5.84% [at 57.5 µM]
CN(Cc1cc2n(n1)CCNC2)Cc1nc2ccsc2c(=O)[nH]1 -9.88%

Next part:

Potency, active:
Cc1ccccc1C1CCCN1Cc1ncccc1C(=O)O (stereo not given) 13.4 µM
